# Assay results from the supplement of paper PMC8104966.
# The list shows a part of the results. This data set is noisy: repeats of one test often differ as much as different tests do.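 U2OS cells carrying ACE2 were mixed with U2OS cells carrying full-length spike, and fusion was scored by imaging as the share of nuclei showing both cell types' fluorescent markers. A compound counts as an inhibitory hit when it is non-toxic and its fusion z-score falls below -3, meaning more than three standard deviations below the plate's DMSO wells.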
# Test system: U2OS ACE2 x SARS-CoV-2 spike co-culture
# Experiment: cell-cell fusion (fraction fused) z-score vs plate DMSO control; higher = more fusion
# Conditions: 30 µM; 5 h; toxicity class: non-toxic, passed QC
row,SMILES,cell-cell fusion (z-score)
1,C[C@@H]1O[C@@H](O[C@H]2C[C@@H](O)[C@]3(CO)[C@@H]4C(CC[C@]3(O)C2)[C@@]2(O)CC[C@H](C3COC(=O)C3)[C@@]2(C)C[C@H]4O)[C@H](O)[C@H](O)[C@H]1O (some centres not stated) [Dihydroouabain],inactive: 0.715
2,CCCCCCCCCCCCCC(=O)O[C@@H]1[C@@H](C)[C@@]2(O)[C@@H](C=C(CO)C[C@@]3(O)C(=O)C(C)=C[C@@H]23)[C@@H]2C(C)(C)[C@]12OC(C)=O [Phorbol 12-myristate 13-acetate],inactive: 0.114
3,C[C@H](N)CN1CCc2ccc(Br)cc21.C[C@H](N)CN1CCc2ccc(Br)cc21.O=C(O)/C=C/C(=O)O [VER-3323 hemifumarate salt],inactive: 2.58
4,O=c1cc(-c2ccc(O)cc2)oc2cc(O[C@@H]3O[C@H](CO)[C@@H](O)[C@H](O)[C@H]3O[C@@H]3OC[C@](O)(CO)[C@H]3O)cc(O)c12,inactive: 2.38
5,Cc1c(NC(=O)c2cccnc2)c(=O)n(-c2ccccc2)n1C,inactive: 2.81
6,C[C@]12CCC(=O)C=C1CC[C@@H]1[C@@H]2C(=O)C[C@@]2(C)[C@H]1CC[C@]2(O)C(=O)CO [Cortisone],inactive: 2.31
7,Brc1c(Br)c(Br)c2[nH]nnc2c1Br,inactive: 1.6
8,Cl.O.O=C(CCc1ccncc1)NNC(=O)N1Cc2ccccc2Oc2ccc(Cl)cc21,inactive: 0.476
9,O=c1c(O)c(-c2ccc(O)c(O)c2)oc2cc(O)cc(O)c12 [Quercetin dihydrate],inactive: 0.98
10,N#CC(C#N)=Cc1ccc(O)c(O)c1,inactive: 1.5
11,CCCC(C)C1(CC)C(=O)N=C([S-])NC1=O.[Na+] (configuration not stated),inactive: 1.7
12,CC(=O)O[C@@]12CO[C@@H]1C[C@H](O)[C@@]1(C)C(=O)[C@H](O)C3=C(C)[C@@H](OC(=O)[C@H](O)[C@@H](NC(=O)OC(C)(C)C)c4ccccc4)C[C@@](O)([C@@H](OC(=O)c4ccccc4)C12)C3(C)C.O.O.O (some centres not stated),inactive: 1.18
13,Clc1ccc2c(c1)CCc1cccnc1C2=C1CCNCC1,active: -5.27
14,COc1ccccc1N1CCN(CC(O)COc2cccc3ccccc23)CC1.Cl.Cl (configuration not stated) [Naftopidil dihydrochloride],inactive: 2.55
15,CN(C)CCOc1ccc(/C(=C(/CCCl)c2ccccc2)c2ccccc2)cc1.O=C(O)CC(O)(CC(=O)O)C(=O)O,inactive: 0.508
16,"CCCn1c(=O)c2[nH]c(-c3ccc(S(=O)(=O)O)cc3)nc2n(CCC)c1=O [1,3-Dipropyl-8-p-sulfophenylxanthine]",inactive: 0.937
17,O=C1NC(=O)/C(=C/c2ccc3nccnc3c2)S1,inactive: 0.918
18,CCC(NC(C)C)C(O)c1ccc(O)c(O)c1.CS(=O)(=O)O (configuration not stated),inactive: -0.576
19,COc1ccc(CN2CCN(C(c3ccc(F)cc3)c3ccc(F)cc3)CC2)c(OC)c1OC,inactive: 0.15
20,Cc1nnc(C(C)C)n1[C@@H]1C[C@H]2CC[C@@H](C1)N2CC[C@H](NC(=O)C1CCC(F)(F)CC1)c1ccccc1 [Maraviroc],inactive: 2.66
21,CCn1cc(C(=O)O)c(=O)c2cc(F)c(N3CCNCC3)cc21 [Norfloxacin],inactive: 2.13

row,SMILES,cell-cell fusion (z-score)
1,CCN(CC)CCCCCCCCOC(=O)c1cc(OC)c(OC)c(OC)c1.Cl [TMB-8 hydrochloride],inactive: 1.51
2,CC1(C)C[C@@H]1C(=O)N/C(=C\CCCCSC[C@H](N)C(=O)O)C(=O)O [Cilastatin],inactive: 2.24
3,CC1CCN(CC[C@H]2CCCN2S(=O)(=O)c2cccc(O)c2)CC1.Cl,inactive: 1.68
4,O=C1NCc2c1c1c3ccccc3[nH]c1c1[nH]c3ccccc3c21 [Staurosporine aglycone],inactive: -1.63
5,O=C([O-])C(O)[C@H](O)[C@H](O)[C@H](O)[C@H](O)CO.O=C([O-])C(O)[C@H](O)[C@H](O)[C@H](O)[C@H](O)CO.[Ca+2] (some centres not stated),inactive: 1.97
6,Cl.O=C(O)Cc1c[nH]cn1 [Imidazole-4-acetic acid hydrochloride],inactive: 0.817
7,COCCOC(=O)C1=C(C)NC(C)=C(C(=O)OC/C=C/c2ccccc2)C1c1cccc([N+](=O)[O-])c1 (configuration not stated) [Cilnidipine],active: -3.45
8,CCCCCN(C)CCC(O)(P(=O)([O-])O)P(=O)(O)O.O.[Na+],inactive: 3.05
9,CCC1(C)OC(=O)N(C)C1=O (configuration not stated),inactive: 1.99
10,C[C@@H](Cc1ccc(C=O)cc1)NC[C@@H](O)c1ccc(O)c(NCO)c1.C[C@@H](Cc1ccc(C=O)cc1)NC[C@@H](O)c1ccc(O)c(NCO)c1.O=C(O)/C=C/C(=O)O [Formoterol],inactive: -0.35
11,Cl.NC(Cc1ccc(O)cc1)C(=O)O (configuration not stated),inactive: 1.83
12,NC(=O)CCCCC1CCSS1 (configuration not stated),inactive: 2.1
13,COc1ccc(/C=C/C(=O)Nc2ccccc2C(=O)O)cc1OC,inactive: 1.25
14,CCC(C)(C)C(=O)O[C@H]1C[C@@H](C)C=C2C=C[C@H](C)[C@H](CC[C@@H]3C[C@@H](O)CC(=O)O3)[C@H]21,inactive: 0.666
15,CCC(C)(C)C(=O)O[C@H]1C[C@@H](C)C=C2C=C[C@H](C)[C@H](CC[C@@H]3C[C@@H](O)CC(=O)O3)[C@H]21 [Simvastatin],active: -7.41
16,CC(N)O.Cc1cc(CC(C)CC(C)(C)C)n(O)c(=O)c1 (configuration not stated),inactive: 0.562
17,O=C(NC1CN2CCC1CC2)c1cc2ccoc2cn1 (configuration not stated),inactive: 3.29
18,O=C(Nc1ccc(C(=O)O)c(O)c1)c1ccccc1,inactive: 0.067
19,CS(=O)(=O)OCCCCOS(C)(=O)=O,inactive: 1.27
20,CNC(C)[C@H](O)c1ccccc1.Cl (some centres not stated),inactive: -0.763
21,CC1(C)CC2C1CC[C@]1(C)CCC3C(C(=O)O)CC(=O)O[C@@]32C1 (some centres not stated) [3-HYDROXY-4-(SUCCIN-2-YL)-CARYOLANE delta-LACTONE],inactive: 2.27

# Part of the list above, bar-delimited:
row | SMILES | cell-cell fusion (z-score)
1 | CCN(CC)CCCCCCCCOC(=O)c1cc(OC)c(OC)c(OC)c1.Cl [TMB-8 hydrochloride] | inactive: 1.51
5 | O=C([O-])C(O)[C@H](O)[C@H](O)[C@H](O)[C@H](O)CO.O=C([O-])C(O)[C@H](O)[C@H](O)[C@H](O)[C@H](O)CO.[Ca+2] (some centres not stated) | inactive: 1.97
6 | Cl.O=C(O)Cc1c[nH]cn1 [Imidazole-4-acetic acid hydrochloride] | inactive: 0.817
8 | CCCCCN(C)CCC(O)(P(=O)([O-])O)P(=O)(O)O.O.[Na+] | inactive: 3.05
10 | C[C@@H](Cc1ccc(C=O)cc1)NC[C@@H](O)c1ccc(O)c(NCO)c1.C[C@@H](Cc1ccc(C=O)cc1)NC[C@@H](O)c1ccc(O)c(NCO)c1.O=C(O)/C=C/C(=O)O [Formoterol] | inactive: -0.35
11 | Cl.NC(Cc1ccc(O)cc1)C(=O)O (configuration not stated) | inactive: 1.83
12 | NC(=O)CCCCC1CCSS1 (configuration not stated) | inactive: 2.1
14 | CCC(C)(C)C(=O)O[C@H]1C[C@@H](C)C=C2C=C[C@H](C)[C@H](CC[C@@H]3C[C@@H](O)CC(=O)O3)[C@H]21 | inactive: 0.666
15 | CCC(C)(C)C(=O)O[C@H]1C[C@@H](C)C=C2C=C[C@H](C)[C@H](CC[C@@H]3C[C@@H](O)CC(=O)O3)[C@H]21 [Simvastatin] | active: -7.41
16 | CC(N)O.Cc1cc(CC(C)CC(C)(C)C)n(O)c(=O)c1 (configuration not stated) | inactive: 0.562
18 | O=C(Nc1ccc(C(=O)O)c(O)c1)c1ccccc1 | inactive: 0.067
19 | CS(=O)(=O)OCCCCOS(C)(=O)=O | inactive: 1.27
20 | CNC(C)[C@H](O)c1ccccc1.Cl (some centres not stated) | inactive: -0.763
